# Assay results: patent US20100316570A1
# Chains of the proteins cited; added tags and fusions are not shown. Residues count along the entry.
# UniProt P78324, residues 31-373: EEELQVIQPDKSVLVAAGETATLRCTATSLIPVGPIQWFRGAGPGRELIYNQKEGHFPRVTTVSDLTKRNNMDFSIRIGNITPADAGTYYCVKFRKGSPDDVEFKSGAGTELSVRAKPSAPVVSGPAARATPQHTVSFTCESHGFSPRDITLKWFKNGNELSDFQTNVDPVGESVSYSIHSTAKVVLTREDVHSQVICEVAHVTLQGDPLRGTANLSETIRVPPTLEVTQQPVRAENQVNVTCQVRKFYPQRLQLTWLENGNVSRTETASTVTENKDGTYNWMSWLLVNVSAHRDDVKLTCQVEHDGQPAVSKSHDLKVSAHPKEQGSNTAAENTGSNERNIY
# Results are given in words; binding and its absence hold for the method and conditions named. Some binding calls cover weakened binding; strength is not graded here.
# Assays:
# [1] = target: recombinant biotinylated human CD47 extracellular domain fused to CD4d3+4-biotin (human); assay: flow cytometry on hCD47-coated beads
# [2] = target: recombinant biotinylated human CD47 extracellular domain fused to CD4d3+4-biotin (human); assay: flow cytometry, saturation binding on hCD47-coated beads
substance,measurement,setting,value
soluble human SIRPα extracellular domain fused to GST (SIRPα1-GST) (from UniProt P78324 31-373) (receptor),binding,[1],binds
same,binding,[2],binds
